The values that follow come from patent US20200041523A1.

Results are given in words; binding and its absence hold for the method and conditions named. Some entries that bind do so weakly or less than the wild type.

The target of the experiment is T1, human BMP15 (native, in female serum sample #6) (human) (UniProt O95972).
T1 sequence: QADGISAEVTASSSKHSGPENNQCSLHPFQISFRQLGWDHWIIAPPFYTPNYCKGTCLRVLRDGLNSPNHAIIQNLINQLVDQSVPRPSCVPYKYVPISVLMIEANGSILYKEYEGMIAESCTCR
In words: gel filtration HPLC of female serum #6, fractions measured by GDF9, BMP15 and Cumulin ELISAs (one common peak, 70-90 k).

B1: human GDF9 (native, in female serum sample #6) (ligand)
chain: GQETVSSELKKPLGPASFNLSEYFRQFLLPQNECELHDFRLSFSQLKWDNWIVAPHRYNPRYCKGDCPRAVGHRYGSPVHTMVQNIIYEKLDSSVPRPSCVPAKYSPLSVLTIEPDGSIAYKEYEDMIATKCTCR
Turning to B1, the binding entry is recorded as “binds”.
